The target of assay [1] is T1, RETINOBLASTOMA RELATED (RBR), LexA two-hybrid bait (Arabidopsis (accession Col-0)) (UniProt Q9LKZ3).
T1 sequence: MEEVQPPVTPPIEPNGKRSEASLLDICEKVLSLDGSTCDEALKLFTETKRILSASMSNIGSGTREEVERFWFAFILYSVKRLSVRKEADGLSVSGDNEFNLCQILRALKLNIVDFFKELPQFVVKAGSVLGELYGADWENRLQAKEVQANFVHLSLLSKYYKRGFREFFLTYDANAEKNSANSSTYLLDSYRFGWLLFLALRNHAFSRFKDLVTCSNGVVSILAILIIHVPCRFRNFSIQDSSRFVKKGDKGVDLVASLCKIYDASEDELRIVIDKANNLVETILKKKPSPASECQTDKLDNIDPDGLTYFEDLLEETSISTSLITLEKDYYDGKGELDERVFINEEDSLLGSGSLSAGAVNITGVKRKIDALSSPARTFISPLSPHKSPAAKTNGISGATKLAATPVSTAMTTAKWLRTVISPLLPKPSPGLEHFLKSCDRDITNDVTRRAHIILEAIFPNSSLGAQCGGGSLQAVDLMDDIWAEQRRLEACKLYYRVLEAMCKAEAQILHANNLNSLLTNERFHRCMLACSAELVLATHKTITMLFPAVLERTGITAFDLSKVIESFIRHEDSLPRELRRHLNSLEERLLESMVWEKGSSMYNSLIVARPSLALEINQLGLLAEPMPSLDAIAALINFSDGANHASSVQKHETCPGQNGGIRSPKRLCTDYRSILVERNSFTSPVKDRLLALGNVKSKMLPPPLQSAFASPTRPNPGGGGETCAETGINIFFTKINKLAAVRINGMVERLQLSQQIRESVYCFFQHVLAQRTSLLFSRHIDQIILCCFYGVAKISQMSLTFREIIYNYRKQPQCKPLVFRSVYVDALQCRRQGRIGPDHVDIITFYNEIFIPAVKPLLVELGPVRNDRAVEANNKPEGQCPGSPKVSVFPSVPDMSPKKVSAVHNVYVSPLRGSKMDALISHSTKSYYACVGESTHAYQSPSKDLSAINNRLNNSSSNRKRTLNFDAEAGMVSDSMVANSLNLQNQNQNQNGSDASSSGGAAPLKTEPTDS
Put plainly: two-hybrid.

For assay [2], the target named is T2, C-Ven-RBR (RETINOBLASTOMA RELATED fused to C-Venus for BiFC) (Arabidopsis (accession Col-0)) (UniProt Q9LKZ3).
T2 sequence: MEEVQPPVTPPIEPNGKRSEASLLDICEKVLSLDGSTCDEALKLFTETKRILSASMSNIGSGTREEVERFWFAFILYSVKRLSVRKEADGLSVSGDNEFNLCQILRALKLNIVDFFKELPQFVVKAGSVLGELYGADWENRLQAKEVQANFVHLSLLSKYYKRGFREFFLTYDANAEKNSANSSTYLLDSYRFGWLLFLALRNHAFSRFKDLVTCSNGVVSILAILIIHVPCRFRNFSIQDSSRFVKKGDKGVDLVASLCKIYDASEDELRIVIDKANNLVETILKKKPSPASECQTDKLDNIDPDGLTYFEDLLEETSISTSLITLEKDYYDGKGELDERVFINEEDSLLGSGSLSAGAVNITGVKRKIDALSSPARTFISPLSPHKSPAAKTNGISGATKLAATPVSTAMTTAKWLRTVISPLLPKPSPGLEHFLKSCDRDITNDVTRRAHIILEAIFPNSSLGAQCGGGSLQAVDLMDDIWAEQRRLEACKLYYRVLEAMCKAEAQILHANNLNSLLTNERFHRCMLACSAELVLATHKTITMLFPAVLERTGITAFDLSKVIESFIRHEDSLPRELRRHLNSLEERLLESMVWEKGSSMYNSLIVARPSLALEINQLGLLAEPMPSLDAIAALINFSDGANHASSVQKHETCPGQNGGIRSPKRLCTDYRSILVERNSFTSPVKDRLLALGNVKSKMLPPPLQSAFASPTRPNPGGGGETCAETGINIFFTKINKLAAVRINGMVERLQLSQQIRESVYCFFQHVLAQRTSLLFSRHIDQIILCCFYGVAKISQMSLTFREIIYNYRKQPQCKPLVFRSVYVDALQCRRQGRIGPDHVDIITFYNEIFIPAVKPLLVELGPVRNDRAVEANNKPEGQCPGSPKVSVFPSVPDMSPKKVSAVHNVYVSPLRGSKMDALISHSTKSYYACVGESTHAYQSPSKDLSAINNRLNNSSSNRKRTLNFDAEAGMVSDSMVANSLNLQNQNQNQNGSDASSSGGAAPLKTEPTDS
Put plainly: split reporter.

These are yes or no findings as the source states them, for the method shown. For some of these results: In cells and extracts the contact can be indirect. Some results given as binding are weak or reduced against the parent protein; the word gives no strength. For some of these results: Where a sequence is shown, tags or fusion partners need not be part of it.

B1: RKD1 (RWP-RK domain-containing 1), two-hybrid prey (protein, UniProt Q9M9U9 1-269)
chain: MKSFCKLEYDQVFGKENNSFSFLNHSSLYSHQSELANPFFELEDEMLPSATSSNCFTSASSFLALPDLEPISIVSHEADILSVYGSASWTAEETMFVSDFAKKSETTTTKKRRCREECFSSCSVSKTLSKETISLYFYMPITQAARELNIGLTLLKKRCRELGIKRWPHRKLMSLQKLISNVKELEKMEGEENEDKLRNALEKLEKEKKTIEKLPDLKFEDKTKRLRQACFKANHKRKRRSGMSTPITSSSSSASASSSSYSSVSGFER
As for B1, the binding entry in assay [1] is “binds”.

B2: N-Ven-LEC1 (BiFC fusion) (protein, UniProt Q9SFD8 1-238)
chain: MERGAPFSHYQLPKSISELNLDQHSNNPTPMTSSVVVAGAGDKNNGIVVQQQPPCVAREQDQYMPIANVIRIMRKTLPSHAKISDDAKETIQECVSEYISFVTGEANERCQREQRKTITAEDILWAMSKLGFDNYVDPLTVFINRYREIETDRGSALRGEPPSLRQTYGGNGIGFHGPSHGLPPPGPYGYGMLDQSMVMGGGRYYQNGSSGQDESSVGGGSSSSINGMPAFDHYGQYK
Regarding B2, the binding entry in assay [2] was “binds weakly”.

B3: LEAFY COTYLEDON1 (LEC1), two-hybrid prey (protein, UniProt Q9SFD8 1-238)
chain: MERGAPFSHYQLPKSISELNLDQHSNNPTPMTSSVVVAGAGDKNNGIVVQQQPPCVAREQDQYMPIANVIRIMRKTLPSHAKISDDAKETIQECVSEYISFVTGEANERCQREQRKTITAEDILWAMSKLGFDNYVDPLTVFINRYREIETDRGSALRGEPPSLRQTYGGNGIGFHGPSHGLPPPGPYGYGMLDQSMVMGGGRYYQNGSSGQDESSVGGGSSSSINGMPAFDHYGQYK
For B3, the binding entry in assay [1] is “binds”.

B4: RKD2 (RWP-RK domain-containing 2), two-hybrid prey (protein, UniProt Q9CA66 1-298)
chain: MADHTTKEQKSFSFLAHSPSFDHSSLSYPLFDWEEDLLALQENSGSQAFPFTTTSLPLPDLEPLSEDVLNSYSSASWNETEQNRGDGASSEKKRENGTVKETTKKRKINERHREHSVRIISDITTYTTSSAPTTLSKETVSRYFYMPITQAAIALNVGLTLLKRRCRELGIRRWPHRKLMSLNTLISNVKELQKMEGEENAEKLQDALEMLEKEKRTIEDLPDLEFKDKTKRLRQACFKANHKRKKKRSLKSDQSQVPSCSSSGSVPSDESVDEAGMESDEEMKYLLCGFSSEFTSGL
As to B4, the binding entry in assay [1] is “binds”.

Values taken from paper doi:10.1101/772400.
